Test results published in publication PMC3598916.
Results are given in words; binding and its absence hold for the method and conditions named. In cells and extracts the contact can be indirect. Some results given as binding are weak or reduced against the parent protein; the word gives no strength.

Chains of the proteins cited; added tags and fusions are not shown. Residues count along the entry.
UniProt P25911, residues 129-226: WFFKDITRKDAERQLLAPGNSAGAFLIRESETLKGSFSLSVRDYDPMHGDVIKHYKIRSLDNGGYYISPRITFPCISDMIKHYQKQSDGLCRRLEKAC

Target: GST-fusion protein containing the SH2-domain of Lyn (UniProt P25911)
Test: pull-down; GST-SH2(Lyn) as bait on lysates (0.5% NP-40, 0.5% sodium deoxycholate) of IgE-loaded wild-type BMMCs pretreated with 100 μM Ro5-4864 or DMSO and stimulated with Ag (DNP-HSA, 20 ng/ml) for 5 min or left unstimulated; immunoblot against phosphotyrosine, Syk and FcεRIβ-chain; only the target purified

binding: binds
B1: β-chain of the FcεRI, tyrosine-phosphorylated (receptor, UniProt P20490 1-235)
chain: MDTENRSRADLALPNPQESSSAPDIELLEASPAKAAPPKQTWRTFLKKELEFLGATQILVGLICLCFGTIVCSVLYVSDFDEEVLLLYKLGYPFWGAVLFVLSGFLSIISERKNTLYLVRGSLGANIVSSIAAGTGIAMLILNLTNNFAYMNNCKNVTEDDGCFVASFTTELVLMMLFLTILAFCSAVLFTIYRIGQELESKKVPDDRLYEELNVYSPIYSELEDKGETSSPVDS
modifications: tyrosine-phosphorylated (sites not given)
